The results in this text go back to PubChem BioAssay AID2685 (National Center for Advancing Translational Sciences (NCATS), 2010).

The term AC50 denotes the concentration at which the activity in the assay is half-maximal. High values mean activity only at high concentration, low ones activity at low concentration.

Some of the results follow. These are further read-outs of the screen, such as a control signal, another cell line or another target. No call is given for them. The list favours compounds with an active or inconclusive main result. Potencies come from curve fits of mixed quality, noted in brackets.

The assay is described as follows: qHTS Assay for Lipid Storage Modulators in Drosophila S3 Cells.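 As to cell number change: cells counted by Cell Tracker Red CMTPX staining in the red channel.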 The settings on record: BODIPY lipid droplet fluorescence, 18-24 h; for cell number change: measured here: cell count max response, cells fed with added oleic acid. Summed up:
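Drosophila S3 cells loaded with oleic acid (400 uM, as added) and compounds at several concentrations; lipid droplets imaged by 488-nm laser-scanning cytometry, 500–530 nm intensity and object ratio to cell channel. Percent activity normalized to 20 uM Triacsin C.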
For orientation: In qHTS, concentration-response curves come from the screen itself.

Setting [1] is: measured here: cell number channel AC50, cells fed with added oleic acid.
Where [2] appears, read: measured here: lipid fluorescence (Fed channel) AC50, cells fed with added oleic acid.

In the case of `COc1ccccc1CN1CC(C(=O)NCCN2CCNC2=O)CCC1=O` (configuration not stated), the cell number change was found to be 50.9%. Further, the AC50 under setting [1] was 20.6 µM [rising, single point].

Regarding `CC(=O)N1c2ccccc2C2(C)C(C1(C)C)C2(Cl)Cl` (configuration not stated), the cell number change was -29.1%. Besides, the AC50 under setting [2] is 2.06 µM [falling, full curve]. `COc1ccc(-n2c3c(c(=O)[nH]c2=O)C(NS(=O)(=O)c2ccc(Cl)cc2)(C(F)(F)F)C(=O)N3)cc1` (configuration not stated): the cell number change is -2.31%. Under setting [2], the AC50 was 0.00411 µM [falling, full curve, poor fit].

Take `COc1ccc(Cl)cc1N(CC(=O)Nc1ccccc1C(=O)N1CCCC1)S(C)(=O)=O`: the cell number change came out at 14.6%. Turning to `COCC(CN1CCN(C2=NS(=O)(=O)c3ccccc32)CC1)OC(=O)c1ccc(OC)cc1` (configuration not stated), the cell number change was 14.5%. `CCOC(=O)c1c(NC(=O)c2ccccc2Br)sc2c1CCc1ccccc1-2`: the concentration at half-maximal activity (AC50) is, setting by setting: under setting [1], 0.517 µM [rising, full curve]; under setting [2], 10.3 µM [rising, partial curve]. For `CC(C)C(C)NC(=O)COc1ccc(-c2ccccc2)cc1` (configuration not stated), the AC50 under setting [2] is 5.17 µM [falling, partial curve].

Regarding `COc1cc(/C=C/C(=O)N2CCCC2)cc(OC)c1OC`, the cell number change is -0.207%. Under setting [2], the AC50 was 5.17 µM [rising, single point].

As for `Cc1ccccc1C1C(C#N)=C2N=C(N)c3c(sc4c3CCCCC4)N2C2=C1C(=O)CC(C)(C)C2` (configuration not stated), the cell number change was -36.9%. Further, the concentration at half-maximal activity (AC50) under setting [1] was 2.31 µM [falling, full curve]. Under setting [2], the AC50 is 13 µM [falling, partial curve]. Consider `CC1=NN(c2ccc(C)cc2)C(=O)/C1=C\C=C\c1ccccc1`, for which the cell number change was -41.3%. The AC50 under setting [1] was 20.6 µM [falling, single point]. For the same compound, the AC50 under setting [2] is 29.1 µM [falling, single point].

With `O=C1c2ccccc2C(O)(c2ncc[nH]2)N1C1CCCCC1` (configuration not stated), the cell number change is -9.61%. Further, under setting [2], the AC50 was 2.59 µM [falling, full curve, poor fit]. As for `CCCCOCC(O)CN1CCN(C(C)=O)CC1` (configuration not stated), the cell number change was -15.4%. Also, the AC50 under setting [2] was 0.0326 µM [falling, full curve, poor fit]. Take `O=C(COc1ccccc1[N+](=O)[O-])N/N=C/c1cccc(OC(=O)c2ccc3c(c2)OCO3)c1`: the cell number change is -25.2%. The AC50 under setting [2] is 14.6 µM [falling, partial curve, poor fit]. Turning to `O=C(NCc1ccc2c(c1)OCO2)C1CCC(=O)N1C1CCCCC1` (configuration not stated), the cell number change came out at 0.129%. Under setting [2], the AC50 is 0.116 µM [rising, partial curve, poor fit]. Take `COc1ccccc1CN1CCSCC1`: under setting [2], the AC50 is 18.4 µM [falling, partial curve]. With `COc1ccc(/C=N/NC(=O)c2sc3nc(C)cc(C)c3c2N)cc1`, the cell number change is 25.2%. Under setting [2], the AC50 is 3.26 µM [rising, full curve]. For the compound `CC1=C(C(=O)Nc2cc(C(=O)N3CCN(c4cccc(C)c4)C(C)C3)ccc2C)SCCO1` (configuration not stated), the cell number change amounted to 7.03%.

Turning to `C=CCN(c1ccccc1)S(=O)(=O)c1cccc(C(=O)NC2CCN(Cc3ccccc3)CC2)c1`, the cell number change was 8.12%. Further, the AC50 under setting [2] was 7.31 µM [rising, partial curve, poor fit]. For the compound `Cc1noc(C)c1COc1ccc(C(=O)OCC(=O)NC2CCCCC2C)cc1` (configuration not stated), the AC50 under setting [2] was 2.31 µM [falling, partial curve].

Consider `CCC1C(=O)Nc2nc(-c3ccccc3)c(-c3ccccc3)n2N=C1C` (configuration not stated), for which the cell number change came to 27.1%. Further, under setting [2], the AC50 was 6.51 µM [rising, single point].

`CN1CCN(c2ccc(S(=O)(=O)N3CCCCC3)cc2[N+](=O)[O-])CC1`: the cell number change is -12.4%. For the same compound, the AC50 under setting [1] is 0.082 µM [falling, full curve, poor fit]. As for `CCOc1ccc(N2C(=O)C3CCCN3C2=S)cc1` (configuration not stated), the cell number change is -9.68%. In addition, the AC50 under setting [2] was 0.0259 µM [rising, full curve, poor fit]. As for `Cc1ccc(OCCN2CCNCC2)c([N+](=O)[O-])c1`, the cell number change is 60.7%. The AC50 under setting [1] was 25.9 µM [rising, single point]. Moreover, the AC50 under setting [2] is 2.31 µM [rising, partial curve]. For the compound `O=P(O)(CCCP(=O)(O)CCc1ccccc1)CCc1ccccc1`, the cell number change is -31.3%. Further, the AC50 under setting [2] was 5.17 µM [falling, full curve]. As to `CCOC(=O)[C@H]1[C@H]2COc3ccc(Br)cc3[C@@H]2N2C(=O)c3cc(Br)ccc3NC(=O)[C@@]12C`, the cell number change was 5.41%. Besides, under setting [1], the AC50 was 0.146 µM [falling, full curve]. Further, the AC50 under setting [2] is 0.13 µM [falling, full curve, poor fit].

Consider `Cc1cccc(OCC(=O)NNc2c3ccccc3nc3ccccc23)c1`, for which the cell number change was -59.8%. For the same compound, under setting [1], the AC50 is 20.6 µM [falling, single point]. The AC50 under setting [2] was 7.31 µM [falling, partial curve]. As to `CCOC(=O)CC(NC(C)=O)c1ccc([N+](=O)[O-])cc1` (configuration not stated), the cell number change was -46.5%. In addition, under setting [1], the AC50 is 29.1 µM [falling, single point]. Further, the AC50 under setting [2] is 29.1 µM [falling, single point]. For `C=CCN(c1ccc(C(=O)Nc2cc(C)cc(C)c2)cc1)S(C)(=O)=O`, the AC50 under setting [2] is 2.91 µM [rising, single point]. Regarding `CCOC(=O)n1c(=O)n(Cc2ccccc2)c2ccccc21`, the AC50 under setting [2] was 23.1 µM [rising, single point]. For the compound `CC1(C)CC(=O)C(CS(=O)(=O)c2ccccc2)=C(O)C1`, the cell number change came to 8.31%. Moreover, the AC50 under setting [2] is 20.6 µM [falling, single point]. For `CC1CCCCC1NC(=O)CSc1nnc(-c2ccco2)n1C` (configuration not stated), the cell number change was determined as 16.6%. Under setting [2], the AC50 is 0.00461 µM [rising, full curve, poor fit]. As to `COc1ccc(Cl)cc1Nc1nc(-c2sc(NC(=O)C(C)(C)C)nc2C)cs1`, the cell number change is -28%. The AC50 under setting [2] is 6.51 µM [falling, full curve]. As to `CCOC(=O)c1c(NC(=O)CSc2nnnn2-c2ccccc2OCC)sc2c1CC(C)(C)NC2(C)C`, under setting [1], the AC50 is 3.26 µM [rising, single point].

As for `Cc1ccccc1N1CCN(C(=S)c2ccc(-c3ccc([N+](=O)[O-])cc3)o2)CC1`, the cell number change was -59%. Also, under setting [1], the AC50 is 8.2 µM [falling, partial curve, poor fit]. With `CC(=O)c1ccc(OCc2ccccc2)c(C)c1O`, the cell number change came to 23.7%. Moreover, under setting [2], the AC50 was 18.4 µM [rising, single point]. Turning to `O=C(Nc1ccccc1C(=O)O)c1cc(S(=O)(=O)N2CCOCC2)c(Br)s1`, the AC50 under setting [2] is 0.651 µM [rising, full curve].

On to `Cc1cccc(NC(=O)c2oc3ccc(S(=O)(=O)N4CCOCC4)cc3c2C)c1C`, for which the cell number change was -22.2%. Besides, the AC50 under setting [1] is 0.411 µM [falling, partial curve, poor fit]. For the compound `O=C1C=C(/C=C/c2ccccc2)C[C@@H](c2ccc(F)cc2)C1`, the cell number change was -7.82%. In the case of `Cc1cccc(Nc2ccc(C(=O)O)cc2[N+](=O)[O-])c1C`, the cell number change was 28.2%. In addition, under setting [2], the AC50 is 6.51 µM [rising, single point]. Take `O=C(COc1ccc2oc(-c3ccccc3)cc(=O)c2c1)Nc1ccccc1`: the cell number change is -22.2%. Besides, under setting [1], the AC50 is 2.59 µM [falling, single point]. In addition, under setting [2], the AC50 was 23.1 µM [falling, single point]. Take `CCn1cc(/C=C(\NC(=O)c2ccc(OC)c(OC)c2)C(=O)NCCCO)c2ccccc21`: the cell number change is 5.36%. Also, the AC50 under setting [2] was 4.11 µM [rising, single point].

On to `CCOC(=O)C1(CCOc2ccccc2)CCN(Cc2cccc(OC)c2O)CC1`, for which the cell number change was -3.75%. Under setting [2], the AC50 was 20.6 µM [falling, single point]. In the case of `CC1CC(Nc2ccccc2N)=CC(=O)O1` (configuration not stated), the cell number change is -3.9%. Further, the AC50 under setting [1] is 0.13 µM [falling, full curve, poor fit]. Moreover, the AC50 under setting [2] was 6.51 µM [falling, single point].

Consider `O=C(CN1CCOCC1)NNC(=S)Nc1ccc(Cl)cc1`, for which the cell number change is 2.49%. The AC50 under setting [2] was 0.00411 µM [falling, full curve, poor fit].

Turning to `COCCN(C(=O)CSc1nnc(-c2ccccc2OC)o1)c1c(N)n(CC(C)C)c(=O)[nH]c1=O`, the cell number change is -41.3%. Further, under setting [1], the AC50 is 29.1 µM [falling, single point]. Under setting [2], the AC50 is 1.64 µM [falling, partial curve]. `O=C(C1=C[C@@H](c2ccc(Br)cc2)C[C@@H](OCCCCO)O1)N1CCN(Cc2ccccc2)CC1`: the cell number change is 3.18%. Also, the AC50 under setting [2] is 14.6 µM [falling, single point]. Regarding `CC1CCCC(C)N1C(=O)C1CCCCC1` (configuration not stated), the cell number change was -24.2%. Further, the AC50 under setting [2] was 0.103 µM [falling, full curve]. In the case of `Cc1ccccc1S(=O)(=O)Oc1cccc2c(O)cccc12`, the cell number change is -10.7%. The AC50 under setting [2] is 6.51 µM [falling, single point]. Consider `COC(=O)Cc1ccc(NC(=S)NCc2ccc(OC)cc2)cc1`, for which the cell number change is -38.7%. Same read-out and setting: as for `CCOC(=O)c1cccc(NC(=O)CSc2nnc(C)n2CC2CCCO2)c1` (configuration not stated), the figure is -14.1%. On to `CC(C)(C)c1ccc(SCCc2ccncc2)cc1`, for which the cell number change is -43.2%. Besides, the AC50 under setting [1] is 18.4 µM [falling, single point]. Besides, the AC50 under setting [2] is 23.1 µM [falling, single point]. As to `COc1ccc(C(=O)CCN2CCN(c3ccccc3F)CC2)cc1`, the cell number change was -25.5%. Moreover, the AC50 under setting [2] is 14.1 µM [falling, single point]. Turning to `CCCC(C(=O)NC1CCCC1)N(C(=O)Cn1nnc(-c2ccc(C)o2)n1)c1ccccc1F` (configuration not stated), the cell number change was -4.84%.

For `CC1(C)Cc2c(C#N)c(NCCN3CCOCC3)nc(-c3ccccc3)c2CO1`, the cell number change came out at 8.89%. Further, the AC50 under setting [2] was 29.1 µM [rising, single point]. As to `CCOC(=O)C1=C(O)/C(=C/c2cccc(OC)c2O)N=C1C`, the cell number change was -16.9%. The AC50 under setting [1] was 6.51 µM [falling, single point]. Moreover, the AC50 under setting [2] is 0.517 µM [falling, partial curve, poor fit]. On to `COc1cc(OC)cc(C(=O)OCC(=O)c2ccc(S(=O)(=O)N3CCCCC3)cc2)c1`, for which the cell number change is -15.2%. Same read-out and setting: then `CCCCN(CC)S(=O)(=O)c1ccccc1`, with 1.16%. For the compound `CCCCCCCCn1c(N2CCN(c3cccc(Cl)c3)CC2)nc2c1c(=O)[nH]c(=O)n2C`, the AC50 under setting [2] was 2.06 µM [rising, partial curve]. On to `CCOC(=O)/C(C#N)=C/c1cn(CCC(=O)O)nc1-c1ccc(F)cc1`, for which the cell number change was 51.8%. Moreover, the AC50 under setting [1] is 18.4 µM [rising, single point].
